# Results taken from the supplement of paper PMC12823440, “Inhibitors supercharge kinase turnover through native proteolytic circuits” (Nature, 2025).
# Chains of the proteins cited; added tags and fusions are not shown.
# UniProt P31152, whole entry: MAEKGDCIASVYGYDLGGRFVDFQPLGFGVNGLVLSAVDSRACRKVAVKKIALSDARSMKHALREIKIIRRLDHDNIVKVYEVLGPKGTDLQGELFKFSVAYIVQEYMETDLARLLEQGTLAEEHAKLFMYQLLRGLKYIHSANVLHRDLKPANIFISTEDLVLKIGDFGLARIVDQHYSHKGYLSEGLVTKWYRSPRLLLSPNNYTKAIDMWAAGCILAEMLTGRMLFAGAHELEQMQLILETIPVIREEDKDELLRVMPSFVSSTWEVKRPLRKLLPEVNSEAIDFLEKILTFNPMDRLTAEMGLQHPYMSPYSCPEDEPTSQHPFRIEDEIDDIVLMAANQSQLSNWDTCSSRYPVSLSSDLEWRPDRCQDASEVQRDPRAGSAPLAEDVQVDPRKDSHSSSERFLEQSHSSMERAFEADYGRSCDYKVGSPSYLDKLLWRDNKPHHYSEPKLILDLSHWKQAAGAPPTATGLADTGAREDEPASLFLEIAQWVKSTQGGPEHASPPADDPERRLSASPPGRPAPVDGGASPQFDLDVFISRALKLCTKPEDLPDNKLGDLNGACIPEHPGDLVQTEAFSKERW
# Where a name gives a salt, the structure may show the parent alone. This is one part of the list. The calls rarely recur for the same compound in another form.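 In K562 cells expressing nanoluciferase-fused kinases, luminescence was recorded at 4 h intervals between 2 and 18 h, normalized as percent of control with DMSO at 100% and a positive control at 0%. A significant (2 sigma) signal drop marks a time point as decreased. The authors' rule for a hit is not shown and takes in more than the number of time points.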
# Target: MAPK4 (UniProt P31152)
# Assay: number of time points (of 5) at which kinase-Nluc abundance scored as decreased, DMSO-normalised (count); higher = more persistent destabilization
# Details: K562; 2-18 h
row,Structure (SMILES),number of time points
1,FC(F)(c1ccc2ncccc2c1)c1nnc2ccc(-c3ccncc3)nn12 (10 µM),0
2,COc1ccc(-c2ccc3c(N4CCOCC4)nc(N4C[C@@H](C)O[C@@H](C)C4)nc3n2)cc1CO (2.5 µM),0
3,C=CC(=O)Nc1ccc(CN2C(=O)N(c3cc(OC)cc(OC)c3)Cc3cnc(Nc4ccc(N5CCN(C)CC5)cc4)nc32)cc1 (2.5 µM),0
4,O=C1NC(=O)/C(=C\c2cccc(C(F)(F)F)c2)S1 (2.5 µM),0
5,CN(C)C(=O)Cn1cc(-c2ccc(-c3cncc4ccccc34)cc2)cn1 (10 µM),0
6,COc1ccccc1-c1cc(Nc2cccc(CS(N)(=O)=O)c2)ncn1 (10 µM),0
7,C[C@@H]1COCCN1c1cc(C2([S@@](C)(=N)=O)CC2)nc(-c2ccnc3[nH]ccc23)n1 [(S)-Ceralasertib] (10 µM),0
8,c1cc(-c2c[nH]c3nccc(N4CCC[C@@]5(CCCCN5)C4)c23)ncn1 (10 µM),0
9,Cc1ccc2nc(NCCN)c3ncc(C)n3c2c1 (2.5 µM),0
10,C=CC(=O)Nc1cccc(Nc2nc(Nc3ccc(NC4CN(CCF)C4)cc3OC)ncc2C(F)(F)F)c1 (2.5 µM),0
11,COc1ncc(Cl)cc1S(=O)(=O)Nc1ccc(F)c(C#Cc2cnc(N)nc2)c1F (2.5 µM),0
12,C=CC(=O)Nc1cccc(Nc2nc(Nc3ccc(N4CCN(C(C)=O)CC4)cc3OC)ncc2C(F)(F)F)c1 [Rociletinib hydrobromide] (10 µM),0
13,C[C@@]1(c2ncncc2F)NC(=O)c2cc(-c3cn[nH]c3)ccc21 (10 µM),0
14,Cc1[nH]c(/C=C2\C(=O)Nc3ccc(F)cc32)c(C)c1C(=O)N[C@H]1CCN(C(=O)N(C)C)C1 [Vorolanib] (10 µM),0
15,NC(=O)c1ccc(-c2nc(-c3ccc4c(c3)OCCO4)c(-c3ccccn3)[nH]2)cc1 (10 µM),0
16,Cc1ccc2cc(-c3c(C)ccc(C(=O)c4c(-c5ccccc5)n(C)n(-c5ccccc5)c4=O)c3N)ccc2n1 (2.5 µM),0
17,OCCn1cc(-c2ccc3c(c2)CC/C3=N\O)c(-c2ccncc2)n1 (10 µM),0
18,NCCNS(=O)(=O)c1cccc2c(Cl)cccc12 [A-3 (hydrochloride)] (10 µM),0
19,COc1cccc(OC)c1C(=O)OCc1cc(O)ccc1O[C@@H]1O[C@H](CO)[C@@H](O)[C@H](O)[C@H]1O [Curculigoside] (10 µM),0
20,CC#CC(=O)N1CC[C@@H](n2c(=O)n(-c3ccc(Oc4ccccc4)cc3)c3c(N)ncnc32)C1 [Tirabrutinib] (10 µM),0

# Entries above containing an NH in an aromatic ring, in the order listed:
row,Structure (SMILES),number of time points
7,C[C@@H]1COCCN1c1cc(C2([S@@](C)(=N)=O)CC2)nc(-c2ccnc3[nH]ccc23)n1 [(S)-Ceralasertib] (10 µM),0
8,c1cc(-c2c[nH]c3nccc(N4CCC[C@@]5(CCCCN5)C4)c23)ncn1 (10 µM),0
13,C[C@@]1(c2ncncc2F)NC(=O)c2cc(-c3cn[nH]c3)ccc21 (10 µM),0
14,Cc1[nH]c(/C=C2\C(=O)Nc3ccc(F)cc32)c(C)c1C(=O)N[C@H]1CCN(C(=O)N(C)C)C1 [Vorolanib] (10 µM),0
15,NC(=O)c1ccc(-c2nc(-c3ccc4c(c3)OCCO4)c(-c3ccccn3)[nH]2)cc1 (10 µM),0

# Remaining list, next part.

row,Structure (SMILES),number of time points
1,CC1=C(C(=O)O)N2C(=O)[C@@H](NC(=O)[C@H](N)C3=CCC=CC3)[C@H]2SC1 [Cephradine] (10 µM),0
2,CC(C)(C)c1nc(-c2cccc(NS(=O)(=O)c3c(F)cccc3F)c2F)c(-c2ccnc(N)n2)s1 [Dabrafenib] (2.5 µM),0
3,COc1cc2c(N3CCN(C(=O)Nc4ccc(OC(C)C)cc4)CC3)ncnc2cc1OCCCN1CCCCC1 [Tandutinib] (10 µM),0
4,Nc1cc(C(F)(F)F)c(-c2cc(N3CCOCC3)nc(N3CCOCC3)n2)cn1 [Buparlisib (Hydrochloride)] (2.5 µM),0
5,Cn1cc(-c2ccc3c(c2)CCN3C(=O)Cc2cccc(C(F)(F)F)c2)c2c(N)ncnc21 (2.5 µM),0
6,O=C1NC(=O)/C(=C/c2ccc3nccnc3c2)S1 (10 µM),0
7,Cn1ncc(Cl)c1-c1cc(C(=O)N[C@H](CN)Cc2ccc(F)c(F)c2)oc1Cl [Uprosertib] (10 µM),0
8,COCCNc1nc2ccc(C#CC3(O)CCCCC3)cc2n1-c1ccnc(N)n1 (10 µM),0
9,CC(=O)NC1CC(n2cnc(NC(=O)Cc3ccc4ccccc4c3)c2)C1 (centres undefined) (10 µM),0
10,COc1cc(Nc2ncc(F)c(Nc3ccc4c(n3)NC(=O)C(C)(C)O4)n2)cc(OC)c1OC (10 µM),0
11,C=C(CC[C@@H](C(=O)O)[C@H]1[C@H](O)C[C@@]2(C)C3=C(CC[C@]12C)[C@@]1(C)CC[C@H](OC(C)=O)C(C)(C)[C@@H]1CC3)C(C)C [Pachymic acid] (10 µM),0
12,O=C(NOCC(O)CO)c1cc(Br)c(F)c(F)c1Nc1ccc(I)cc1F (centres undefined) (2.5 µM),0
13,Nc1nc2ccc(Cl)cc2c2nc(-c3ccco3)nn12 (10 µM),0
14,O=C(CSC1=NCCN1)NC1CCCCCC1 [ICCB-19 (hydrochloride)] (2.5 µM),0
15,O=Nc1c(-c2c(O)[nH]c3ccc(I)cc23)[nH]c2ccccc12 [5-Iodo-indirubin-3'-monoxime] (10 µM),0
16,Nc1nc(F)nc2c1ncn2[C@@H]1O[C@H](CO)[C@@H](O)[C@@H]1O [Fludarabine] (10 µM),0
17,Cc1cc(=O)oc2c(C=O)c(O)ccc12 (10 µM),0
18,C[C@@H]1CC[C@@H](Nc2nc(NC(C)(C)C)ncc2C(N)=O)C[C@H]1O (10 µM),0
19,NC(=O)c1nc(Nc2ccccc2)sc1NC(=O)C1CCCCC1 (10 µM),0
